Laboratory results published in patent US20240132598A1.
Where a chain is given by its changes, count along the chain named. Results are given in words; binding and its absence hold for the method and conditions named. Some results given as binding are weak or reduced against the parent protein; the word gives no strength. For some of these results: Where a sequence is shown, tags or fusion partners need not be part of it.

B1: 1A2.A3 (antibody, V domains shown)
VH: EVQLQESGPELVKPGASVKISCKASGYSFTGYYIHWVKQSPEESLEWIGEIYPNTGITTYNQKFTAKATLTVDKSSNTAYMQLKSLTSEDSAVYYCTRWGDYYGRDYWGQGTSVTVSS
VL: DIVLTQSPASLAVSLGQRATISCRASETVDTHGNSFMHWYQQKPGQPPKLLIYRASNLESGIPARFSGSGSRTDFTLTINPVEADDVATYYCQQSNEDPRTFGGGTKLEIK
B2: 4A4.A3 (antibody, V domains shown)
VH: QVTLKESGPGILQPSQTLSLTCSFSGFSLTTYGMGVGWIRQPSGKGLEWLANIWFNDNKYYNSTLKSRLTISKDTSNNQVFLKISSVDTTDTATYYCAQITTVVGTFDYWGQGSPLTVSP
VL: RIVMTQSPTTMAASPGEKITITCSASSSISSIYLHWYQQKPGFSPKLLIFRTSDLASGVPPRFGGSGSGTSYSLTIGTMEAEDVATYYCQQGSSFPRTFGGGTKLEIK
B3: 4H2.E3 (antibody, V domains shown)
VH: EVQLQESGPELVKPGASVKMSCKASGYTFTSYLMHWMKQKPGQGLEWIGYINPYSDGIKYNEKFRDKATLTSDKSSNTAYMELSSLTSEDSAVYYCAHSSGYVGYAMDYWGQGTSVTVSS
VL: GIVMTQTTPSVPVTPGESVSISCRSSKSLLHSNGNTYLYWFLQRPGQSPQLLIYRMSNLASGVPDRFSGSGSGTTFTLRISRVEAEDVGVYYCMQHLEYPFTFGSGTKLEIK
B4: 11F4.B9 (antibody, V domains shown)
VH: B1 VH with S40G, E43K, Y52I, N54S, I57S, T59I, T65K, N77S, M81L, T97E
VL: B1 VL with T28S, T31I, H32Y
B5: 12H10.G7 (antibody, V domains shown)
VH: EVQLQESGPELVKPGASVKMSCKASGYTFTRYVMHWVKQRPGQGLEWIGFINPYNDDTKYNEKFKGKATLTSDKSSSTAYMELSSLTSEDSAVYHCARWRQLGSLDSWGQGTTLTVSS
VL: NIVLTQSPASLAVSLGQRATISCRASESVDTYGSSFVHWYQQKPGQPPKLLIYLASNLESGVPARFSGSGSRSDFTLTIDPVEADDAATYYCQQNNEEPWTFGGGTKLEIK
B6: 14A5.E8 (antibody, V domains shown)
VH: EVQLQESGAELVQPGASVRLSCKASGYTFTSYWINWVKQRPGQGLEWIGNIYPGSSIINYNENFKNRATLTVDTSSSTAYMQLSSLTSDDSAVYYCARRVVYLYFDYWGQGTTLTVSS
VL: QIVLTQSPAIMSASPGEKVTMTCSASSSVSYMHWYQQKSGTSPKRWIYDTSKLASGVPARFSGSGSGTSYSLTISSMEAEDAATYYCQQWTSKSPTFGGGTKLEIK
B7: 15A11.C8 (antibody, V domains shown)
VH: EVQLQESGGGLVKTGGSRKLSCAASGFTFSDYGMHWVRHTPEKGLEWVVYISSGGNTIFYTDTVKGRFTISRDNAKNTLFLQMTSLRSEDTAVYFCVRQGYYYAMDYWGQGASVTVSS
VL: DIQMTQTTSSLSASLGDRVTIRCRASQDITNYLNWYQQKPDGAVKLLISYTSILQSGVPSRFSGSGSGTDYSLTISNLEQGDVATYFCQQGSSLPWTFGGGTKLEIK
B8: 12C9.E5 (antibody, V domains shown)
VH: EVQLQESGAELVRPGASVKLSCKASGYIFTDYEIHWVKQTPVHGLEWIGAIDPETGITAYSQKFKGKATLTTDTSSSTAYMEFRSLTSEDSAVYYCTRGGLLYWGQGTSVTVSS
VL: DVVMTQTPLSLSVTIGQPASISCKSSQSLLYSDGETYLNWLQQRPGQSPKRLMYQVSKLDPGIPDRFSGSGSETDFTLKISRVEAEDLGIYYCLQGTFYPHTFGGGTKLEIK
B9: 4A4.H7 (antibody, V domains shown)
VH: B1 VH
VL: B1 VL
B10: 14H8.E7 (antibody, V domains shown)
VH: B6 VH with Q13K, R19K, S31N, V37L, S56T, N63K, R67K, Y107S
VL: B6 VL with Y48F, A59V, S75T, S76N, A79T, T91S

Biological target: T1, hFLT3-His fusion protein (human) (UniProt P36888)
T1 sequence (looked up): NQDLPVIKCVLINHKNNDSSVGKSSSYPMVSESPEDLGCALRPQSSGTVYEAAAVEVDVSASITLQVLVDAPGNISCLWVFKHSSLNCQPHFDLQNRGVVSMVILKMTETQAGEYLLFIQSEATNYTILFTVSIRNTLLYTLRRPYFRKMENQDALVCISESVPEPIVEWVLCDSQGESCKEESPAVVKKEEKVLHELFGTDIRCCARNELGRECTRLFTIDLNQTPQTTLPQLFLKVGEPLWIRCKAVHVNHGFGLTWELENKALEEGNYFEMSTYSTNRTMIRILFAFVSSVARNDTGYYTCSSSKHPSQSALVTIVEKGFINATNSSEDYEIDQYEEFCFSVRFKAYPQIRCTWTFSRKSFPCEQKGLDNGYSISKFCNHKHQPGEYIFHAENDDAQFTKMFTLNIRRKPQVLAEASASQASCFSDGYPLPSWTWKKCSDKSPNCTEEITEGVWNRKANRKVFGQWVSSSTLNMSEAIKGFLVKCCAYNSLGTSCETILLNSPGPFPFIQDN
Experiment: SPR, purified subclone mAb

binding, binds:
B1
B2
B3
B4
B5
B6
B7
B8

Biological target: T1, hFLT3-His fusion protein (human)
Experiment: summary of kinetics and affinity for recombinant hFLT3 protein

binding, binds:
B2
B6

Biological target: cynomolgus monkey FLT3 expressed on RMA cells (cynomolgus monkey)
Experiment: flow cytometry, purified mAb on RMA-cFLT3 cells

binding, binds:
B1
B2
B3
B4
B5
B6
B7

Biological target: T1, hFLT3-His fusion protein (human)
Experiment: SPR, purified murine subclone mAb with an hFLT3-His concentration series, 1:1 binding fit

binding, binds:
B9
B10
